Test results: the supplement of paper PMC5949888
± gives the standard deviation of the averaged measurements. Most values lie at the floor of the assay. Slopes are relative: functional sequences can read slightly below zero.

What follows are substances tested on Saccharomyces cerevisiae PS128 hsf1 delta, HSF1(1-493) fusion (assay: growth estimate (transactivation domain function in HSF1 fusion, heat-shock survival) (a.u. (slope of normalised read count over time)); higher = stronger growth at 37°C, i.e. more transactivation activity). Conditions: library: random library.

Substance	growth estimate
LFCVVRRHREYSSFRLLKRL	< -0.25
RGRKE	-0.25
ASPAYVRATPY	< -0.25
GIELIDARSPFRNVPSTPGE	< -0.25
HETCV	< -0.25
KRTKRRATQGRDRQTRGASI	< -0.25
FVCQES	< -0.25
RGG	< -0.25
GEVRT	< -0.25
MGRSWCEGLG	< -0.25
GFHTQHLPSALYWDVDRV	< -0.25
LKCSDVWSHPAKTTSWTCAL	< -0.25
SVGLRWRRQRIGSLVGMAVT	< -0.25
RGIKITFHVVSFRHPG	< -0.25
RNGAVN	< -0.25
ATAQSSARVEREHKIHILRN	< -0.25
SRIVSHNMVQRKLAVLRRLR	< -0.25
DWASSGT	< -0.25
PAVADGRVPRTSLDSTWFPQ	< -0.25
SFRDLPDNNRRDDLLVTLPS	< -0.25
TQSKGMSPS	< -0.25
ANLELRFIRRLVMGEPRF	< -0.25
VANSDRTLPRDWASAIRQFH	< -0.25
ECQVRSSHGSDDFVYVSGKR	< -0.25
GQTPFCSELVRRL	< -0.25

Substance	growth estimate
TVCKVLREPMWSRSAVMVTN	< -0.25
HFKIVSE	< -0.25
PHDVYKVEKGFFTATF	< -0.25
CTDFGGQCPKLSRCSEGAPV	< -0.25
ETGLPCPCHPAYSSSMDCVR	< -0.25
TFVVCRTGWARHVDC	< -0.25
SRLAVGAVG	< -0.25
KSRAGGEVSTAG	< -0.25
PCYI	< -0.25
HDILRARQPAAP	< -0.25
WGG	< -0.25
AWRPLNCFIVRG	< -0.25
VKGDMYGKCGYLQG	< -0.25
GCRQSLPVANRLRPCSI	< -0.25
GHDLWRVNHEFGTVRDA	< -0.25
GYRHASEVLARHS	< -0.25
SPMFGASRASRLSC	< -0.25
PRALRYVGLS	< -0.25
NVWGLGFDWLEVILTLQYRD	< -0.25
TQLFEVFLATPFLAV	< -0.25
SNQSHHLFSIGRNAT	< -0.25
LRRVCSGLKQSVLARRRACG	< -0.25
VPRDAEEFSDTAILG	-0.243
GAKLGTN	< -0.25
TRAMAILVSVA	< -0.25

Shown as comma-separated lines: entries from further up.
Substance,growth estimate
SNQSHHLFSIGRNAT,< -0.25
LRRVCSGLKQSVLARRRACG,< -0.25
VPRDAEEFSDTAILG,-0.243

Next entries:

Substance	growth estimate
LFYIPEFPRPPASTR	< -0.25
LRHG	< -0.25
SLRTTGGRVVASRGNAPDGQ	< -0.25
PCS	< -0.25
MFP	< -0.25
VYQRAPCGGAR	< -0.25
PECCPLARYGYGLRWL	< -0.25
NPIR	< -0.25
TCL	< -0.25
LTVYFGRVHAQAYTAVLILA	< -0.25
TRCGRDCAGYVQLSRMDPCV	< -0.25
DLRTWFLLAWTM	< -0.25
VVCTIDYPSCNYHGSRRS	< -0.25
DEHEQ	< -0.25
SINGGHLKEHLYRTAQGPAR	< -0.25
WMCRCSRSSAACDLQHPR	< -0.25
LLLRVTPLK	< -0.25
EQGNPLRDREDTRQTPARAA	< -0.25
PKFGV	< -0.25
GIRGSGDVSLARC	-0.216
GASTSTSSSSVRRSE	< -0.25
VMRARVEFRRGVNLRVLLRV	< -0.25
IVSPRHLLKGSVDNRFASFP	< -0.25
SRGTRLY	< -0.25
RREQLERRNEYSPMRSHSWI	< -0.25

Substance	growth estimate
KWQVIRRSS	< -0.25
PWRLRALVSTCS	-0.243
FDLG	< -0.25
VWPARY	< -0.25
FIRCHGRTKA	< -0.25
LGTGIVQPYRIGNLQVLVSS	< -0.25
LPVLVPSKREGGSRCHCESR	< -0.25
GRSKGTTRRLRSAGEVMRSR	< -0.25
PFGCVRTV	< -0.25
SPTKLDSRRNVLICRRGPTA	< -0.25
GGYRTEV	< -0.25
FVEAEMVISVEFGLWL	< -0.25
PVDIY	< -0.25
PYDKFLLDFCHG	< -0.25
NTQIVNDEVGLVWAVGLFVG	< -0.25
YSLGSVPGSFGR	< -0.25
SNGVH	< -0.25
DEKAVGRVLCRSFF	< -0.25
LTICVHELPWHGYLSDVNSG	< -0.25
MDPEFVPARFLGAPQHSGYI	< -0.25
ARTIYHPVLLTRRLWKSQST	-0.237
PVGDVLVGGASEKRQAYAHL	< -0.25
DQIPLRDESWGRTPQDNLTR	< -0.25
ILT	-0.248 ± 0.003
LIGFIIKDAPS	-0.243

Substance	growth estimate
VLAGLTASWCNWLISIAFKR	< -0.25
GAVKSELDRAYQIPGPTKLE	< -0.25
LDRGEVRR	< -0.25
VQSCGLRILHLLTIVRVLWV	< -0.25
MPRSQQHRIMMTPGSDRRIH	< -0.25
RPRCPLSIRDNVPRRFDTRA	< -0.25
RLHRSGDDLKWIRARPYV	< -0.25
TIVRDTLTLCGERNGMMCQF	< -0.25
LPCSILGCSCSCRSDYRPLR	< -0.25
RAEY	< -0.25
NVFCF	< -0.25
PGLRTKVYSAQQIANLIFSA	< -0.25
VRCG	< -0.25
SEREVPTVFVARRASSLNQG	-0.229
ERYHTAMHVRSTSRAKSSQA	< -0.25
VRSRAFSRRGWITALAPHS	< -0.25
RHVCSCRARLVIHVLGDVTG	< -0.25
SSRSALHGYERRPALHS	< -0.25
DCIHRKVIRLEQL	< -0.25
TTWDSPLCQKP	< -0.25
VNRV	< -0.25
AGQFKSFVHT	< -0.25
RPVKWLSLGLMYV	< -0.25
WEVDMVSYARTLLLVSCDRP	< -0.25
LEFRSSY	< -0.25

Substance	growth estimate
CYTRPSRCHVCSSAWANSIG	< -0.25
SSLGLSECLSVLWIGLHHRP	< -0.25
MLTCRQAWIT	< -0.25
YIN	< -0.25
IHQLGEWNAVGAHYLMHIVL	< -0.25
MGATQAVREGGARYFL	< -0.25
ALGSTLFSVKQGISLRNGDS	< -0.25
RNVGGIGKWMCLVTMRWTTA	0.366
VHATIR	< -0.25
NNLPVWFDTSHPIGSRLAPA	< -0.25
NNFRDVLIFSRFGEYGSDYC	-0.154
RGMPGAS	< -0.25
QPLGGIDCPERR	< -0.25
YLSSWQYDTPCGMPYRGS	< -0.25
PRSPTQRKQVRTPL	< -0.25
TRICLLILLGVHVSHKVQTR	< -0.25
SLSTNLRFRCKHG	< -0.25
RSWSQSATIWRRDGTDTTRT	-0.245
LDGGTRVL	< -0.25
FWRRRSNLGREGWTGQATIR	< -0.25
VAVPDGRACPLKLGSLKSRF	-0.182
EPSIRW	< -0.25
GHPIQGQVRVGSQRGYVVSA	-0.243
SVRILREAPVPKGLLL	< -0.25
FPWVLYALLESHSPNSDDSQ	< -0.25

Substance	growth estimate
ITWSPLWGERLHC	< -0.25
TGSLWL	< -0.25
LLYPSRIA	< -0.25
ESDYDDDGRVVFEYNRPGTN	< -0.25
CTLVAMVIRRVKQHIDRGVS	< -0.25
PVIVIPNLDCRDPLFVLAHR	-0.246
NSRMRSMVRDNGTAGFTCWC	< -0.25
SLKQLSIPLYVCWGRSLTPP	< -0.25
NSGGSRPPTDEASARGNI	< -0.25
MSSVGTAILHSYPSRQTPRL	-0.173
LKPLRWQHLYGLDHGGH	< -0.25
QLCEIKGIIPNI	< -0.25
PLNVWPSLN	< -0.25
AEGGGIDATSESVATVHTIM	< -0.25
CVRGGGTLSFCAPHETGLSP	< -0.25
RAVSVPYYGYRFSEPRLSLC	< -0.25
VAFDIEVRFRKRCL	< -0.25
WRCQ	< -0.25
SGRKVLMQNPLLHGI	< -0.25
MCGGRIKPESICGPLRALLV	< -0.25
SMRSVHGTDTLGLLEHISNL	< -0.25
IATACRA	< -0.25
WHNNRRPEWEYEIAASSMSD	< -0.25
GRMSHGDTSMLVM	< -0.25
PAIAKMGSLPTASRDLPLRP	< -0.25

Substance	growth estimate
QLSCCCRTKLLSFWSWLLSC	-0.205
PGGSYLSQSSWIRKV	< -0.25
RCERLI	< -0.25
HARSLLVSSQLGIAVPALGP	< -0.25
GVNSMGPSQSGLILPRTLAK	-0.246
RIREIFVTLAPHVRTCLHRR	< -0.25
FESILRCSFVCARSGATLNA	< -0.25
SVQWYSA	< -0.25
NIKRRRSCGSSTSAFRLPWI	< -0.25
HWWAVLDD	< -0.25
GHSVRLNSTFGSSARDDAVQ	< -0.25
YGCMPNVCPQLRTSQ	< -0.25
ESTINKGCWCTRQWIG	< -0.25
VVKGGVE	< -0.25
STKFVTCRCSVIR	< -0.25
SHGRGEFASKLWMMLSYHFD	< -0.25
YMFTIGA	< -0.25
TLEHNPWGNACSEGEVCMDI	< -0.25
GGDGRRHILRGVGIVHLVIH	< -0.25
AYKHCWINPQNATAKDKFSL	< -0.25
FFEINVYCSVSHVLLLKWWR	< -0.25
QYEERCRKSPSTRDEFHGSH	< -0.25
ETGSHRYGRP	< -0.25
GRPQLRPKQAERRRLCGQAR	< -0.25

Rewritten with bars between the fields: part of the list above
Substance | growth estimate
CTDFGGQCPKLSRCSEGAPV | < -0.25
EQGNPLRDREDTRQTPARAA | < -0.25
GHSVRLNSTFGSSARDDAVQ | < -0.25
VVKGGVE | < -0.25
